Results are given in words; binding and its absence hold for the method and conditions named. In cells and extracts the contact can be indirect. These calls come from enrichment with a bait or labelling near it, and not all partners need be listed. For some assays here: Where a sequence is shown, tags or fusion partners need not be part of it.
What was measured:
Assay in all cases: proximity labelling
[1] = molecular target: RHOT2 BirA*-FLAG bait (human) (UniProt Q8IXI1)
RMDN3-BirA*-FLAG (human) = molecular target: T1, RMDN3-BirA*-FLAG (human) (UniProt Q96TC7)
T1 sequence: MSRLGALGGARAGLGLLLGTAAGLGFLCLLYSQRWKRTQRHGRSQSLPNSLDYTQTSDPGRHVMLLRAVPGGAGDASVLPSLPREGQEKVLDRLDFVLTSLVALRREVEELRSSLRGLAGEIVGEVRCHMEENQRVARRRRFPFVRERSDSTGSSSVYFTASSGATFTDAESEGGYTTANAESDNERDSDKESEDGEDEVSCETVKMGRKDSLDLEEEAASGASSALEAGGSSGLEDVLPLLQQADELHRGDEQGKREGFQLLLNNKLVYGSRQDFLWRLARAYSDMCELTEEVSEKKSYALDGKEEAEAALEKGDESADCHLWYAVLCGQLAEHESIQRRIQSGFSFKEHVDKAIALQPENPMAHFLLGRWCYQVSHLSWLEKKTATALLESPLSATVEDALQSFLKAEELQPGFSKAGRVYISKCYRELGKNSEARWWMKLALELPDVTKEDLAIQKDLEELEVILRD

Protein sequences, listed by entry. Tags and fused reporters are not part of them.
UniProt Q8IXI1: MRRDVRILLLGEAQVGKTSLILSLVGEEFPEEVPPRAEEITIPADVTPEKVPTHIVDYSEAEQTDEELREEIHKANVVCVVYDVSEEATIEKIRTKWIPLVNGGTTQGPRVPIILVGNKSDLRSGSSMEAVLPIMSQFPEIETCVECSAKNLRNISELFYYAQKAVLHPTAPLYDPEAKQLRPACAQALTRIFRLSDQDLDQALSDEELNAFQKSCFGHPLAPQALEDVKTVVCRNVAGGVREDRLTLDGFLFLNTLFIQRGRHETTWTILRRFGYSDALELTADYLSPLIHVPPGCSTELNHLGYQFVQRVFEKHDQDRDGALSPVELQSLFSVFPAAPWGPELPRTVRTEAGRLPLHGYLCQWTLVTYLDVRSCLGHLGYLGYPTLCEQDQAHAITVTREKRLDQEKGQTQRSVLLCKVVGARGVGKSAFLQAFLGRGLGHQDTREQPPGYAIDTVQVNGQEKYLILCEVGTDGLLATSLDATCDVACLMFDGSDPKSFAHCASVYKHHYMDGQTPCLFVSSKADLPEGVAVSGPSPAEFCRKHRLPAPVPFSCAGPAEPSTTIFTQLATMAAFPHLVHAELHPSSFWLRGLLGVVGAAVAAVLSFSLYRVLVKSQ
UniProt Q14318: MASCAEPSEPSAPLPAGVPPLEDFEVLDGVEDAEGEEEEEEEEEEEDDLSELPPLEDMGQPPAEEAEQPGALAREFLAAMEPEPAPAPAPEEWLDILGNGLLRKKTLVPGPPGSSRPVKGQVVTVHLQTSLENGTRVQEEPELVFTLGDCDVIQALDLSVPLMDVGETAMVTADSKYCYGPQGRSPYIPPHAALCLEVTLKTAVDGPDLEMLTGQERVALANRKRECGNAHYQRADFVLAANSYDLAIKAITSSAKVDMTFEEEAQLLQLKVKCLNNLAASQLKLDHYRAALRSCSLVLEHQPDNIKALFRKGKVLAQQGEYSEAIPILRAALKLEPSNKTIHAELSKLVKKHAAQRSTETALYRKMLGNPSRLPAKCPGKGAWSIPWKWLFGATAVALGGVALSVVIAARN

[2] = molecular target: T2, SLC25A46 BirA*-FLAG bait (human) (UniProt Q96AG3)
T2 sequence: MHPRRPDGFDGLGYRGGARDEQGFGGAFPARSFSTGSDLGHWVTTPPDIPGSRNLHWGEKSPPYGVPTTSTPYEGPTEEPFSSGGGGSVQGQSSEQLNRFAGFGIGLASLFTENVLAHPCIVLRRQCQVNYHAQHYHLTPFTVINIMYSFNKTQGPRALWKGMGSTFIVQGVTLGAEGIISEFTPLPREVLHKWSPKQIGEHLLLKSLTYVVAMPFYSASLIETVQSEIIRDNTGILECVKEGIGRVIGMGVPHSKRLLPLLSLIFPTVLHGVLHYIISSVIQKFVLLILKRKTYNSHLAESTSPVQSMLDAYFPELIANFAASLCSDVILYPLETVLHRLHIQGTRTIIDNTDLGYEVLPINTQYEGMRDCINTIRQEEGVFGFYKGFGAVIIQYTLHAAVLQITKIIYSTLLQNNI

[3] = molecular target: T3, PTPN1 BirA*-FLAG bait (human) (UniProt P18031)
T3 sequence: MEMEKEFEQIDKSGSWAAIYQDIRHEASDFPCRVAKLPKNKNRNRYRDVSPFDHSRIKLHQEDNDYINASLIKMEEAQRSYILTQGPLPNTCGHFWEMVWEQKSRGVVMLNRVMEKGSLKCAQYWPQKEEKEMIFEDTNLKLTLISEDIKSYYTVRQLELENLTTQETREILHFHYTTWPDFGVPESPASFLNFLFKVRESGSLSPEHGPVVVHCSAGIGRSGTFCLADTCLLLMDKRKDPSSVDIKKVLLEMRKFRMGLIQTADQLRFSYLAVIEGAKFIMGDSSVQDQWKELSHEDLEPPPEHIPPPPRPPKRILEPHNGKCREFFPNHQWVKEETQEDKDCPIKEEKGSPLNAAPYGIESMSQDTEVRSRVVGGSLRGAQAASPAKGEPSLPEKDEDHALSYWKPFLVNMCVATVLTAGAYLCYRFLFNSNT

[4] = molecular target: T4, MTRF1L-BirA*-FLAG (human) (UniProt Q9UGC7)
T4 sequence: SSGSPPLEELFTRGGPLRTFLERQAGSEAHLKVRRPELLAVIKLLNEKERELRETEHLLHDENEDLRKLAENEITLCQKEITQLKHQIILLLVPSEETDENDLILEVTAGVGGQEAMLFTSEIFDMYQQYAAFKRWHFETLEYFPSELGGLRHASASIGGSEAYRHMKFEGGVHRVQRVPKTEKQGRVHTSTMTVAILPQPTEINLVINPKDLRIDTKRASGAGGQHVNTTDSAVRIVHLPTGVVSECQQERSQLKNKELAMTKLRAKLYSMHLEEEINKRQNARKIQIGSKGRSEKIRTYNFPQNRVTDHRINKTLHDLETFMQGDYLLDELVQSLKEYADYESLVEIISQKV

BirA*-FLAG-FKBP8 (human) = BirA*-FLAG-FKBP8 (human) (UniProt Q14318)

Measured: binding

B1: MFF (protein, UniProt Q9GZY8 1-342)
chain: MSKGTSSDTSLGRVSRAAFPSPTAAEMAEISRIQYEMEYTEGISQRMRVPEKLKVAPPNADLEQGFQEGVPNASVIMQVPERIVVAGNNEDVSFSRPADLDLIQSTPFKPLALKTPPRVLTLSERPLDFLDLERPPTTPQNEEIRAVGRLKRERSMSENAVRQNGQLVRNDSLWHRSDSAPRNKISRFQAPISAPEYTVTPSPQQARVCPPHMLPEDGANLSSARGILSLIQSSTRRAYQQILDVLDENRRPVLRGGSAAATSNPHHDNVRYGISNIDTTIEGTSDDLTVVDAASLRRQIIKLNRRLQLLEEENKERAKREMVMYSITVAFWLLNSWLWFRR
binds: [1] | RMDN3-BirA*-FLAG (human) | [2] | [3]

B2: ACAD9 (endogenous prey) (protein, UniProt Q9H845 38-621)
chain: AFAKELFLGKIKKKEVFPFPEVSQDELNEINQFLGPVEKFFTEEVDSRKIDQEGKIPDETLEKLKSLGLFGLQVPEEYGGLGFSNTMYSRLGEIISMDGSITVTLAAHQAIGLKGIILAGTEEQKAKYLPKLASGEHIAAFCLTEPASGSDAASIRSRATLSEDKKHYILNGSKVWITNGGLANIFTVFAKTEVVDSDGSVKDKITAFIVERDFGGVTNGKPEDKLGIRGSNTCEVHFENTKIPVENILGEVGDGFKVAMNILNSGRFSMGSVVAGLLKRLIEMTAEYACTRKQFNKRLSEFGLIQEKFALMAQKAYVMESMTYLTAGMLDQPGFPDCSIEAAMVKVFSSEAAWQCVSEALQILGGLGYTRDYPYERILRDTRILLIFEGTNEILRMYIALTGLQHAGRILTTRIHELKQAKVSTVMDTVGRRLRDSLGRTVDLGLTGNHGVVHPSLADSANKFEENTYCFGRTVETLLLRFGKTIMEEQLVLKRVANILINLYGMTAVLSRASRSIRIGLRNHDHEVLLANTFCVEAYLQNLFSLSQLDKYAPENLDEQIKKVSQQILEKRAYICAHPLDRTC
binds: [4]

B3: OCIAD1 (protein, UniProt Q9NX40 1-245)
chain: MNGRADFREPNAEVPRPIPHIGPDYIPTEEERRVFAECNDESFWFRSVPLAATSMLITQGLISKGILSSHPKYGSIPKLILACIMGYFAGKLSYVKTCQEKFKKLENSPLGEALRSGQARRSSPPGHYYQKSKYDSSVSGQSSFVTSPAADNIEMLPHYEPIPFSSSMNESAPTGITDHIVQGPDPNLEESPKRKNITYEELRNKNRESYEVSLTQKTDPSVRPMHERVPKKEVKVNKYGDTWDE
not listed: [4]
binds: all other assays above

B4: TDRKH (protein, UniProt Q9Y2W6 1-561)
chain: MSTERTSWTSLSTIQKIALGLGIPASATVAYILYRRYRESREERLTFVGEDDIEIEMRVPQEAVKLIIGRQGANIKQLRKQTGARIDVDTEDVGDERVLLISGFPVQVCKAKAAIHQILTENTPVSEQLSVPQRSVGRIIGRGGETIRSICKASGAKITCDKESEGTLLLSRLIKISGTQKEVAAAKHLILEKVSEDEELRKRIAHSAETRVPRKQPISVRREDMTEPGGAGEPALWKNTSSSMEPTAPLVTPPPKGGGDMAVVVSKEGSWEKPSDDSFQKSEAQAIPEMPMFEIPSPDFSFHADEYLEVYVSASEHPNHFWIQIVGSRSLQLDKLVNEMTQHYENSVPEDLTVHVGDIVAAPLPTNGSWYRARVLGTLENGNLDLYFVDFGDNGDCPLKDLRALRSDFLSLPFQAIECSLARIAPSGDQWEEEALDEFDRLTHCADWKPLVAKISSYVQTGISTWPKIYLYDTSNGKKLDIGLELVHKGYAIELPEDIEENRAVPDMLKDMATETDASLSTLLTETKKSSGEITHTLSCLSLSEAASMSGDDNLEDDYLL
binds: [1] | RMDN3-BirA*-FLAG (human) | [2] | [3]

B5: SMCR8 (protein, UniProt Q8TEV9 1-937)
chain: MISAPDVVAFTKEEEYEEEPYNEPALPEEYSVPLFPFASQGANPWSKLSGAKFSRDFILISEFSEQVGPQPLLTIPNDTKVFGTFDLNYFSLRIMSVDYQASFVGHPPGSAYPKLNFVEDSKVVLGDSKEGAFAYVHHLTLYDLEARGFVRPFCMAYISADQHKIMQQFQELSAEFSRASECLKTGNRKAFAGELEKKLKDLDYTRTVLHTETEIQKKANDKGFYSSQAIEKANELASVEKSIIEHQDLLKQIRSYPHRKLKGHDLCPGEMEHIQDQASQASTTSNPDESADTDLYTCRPAYTPKLIKAKSTKCFDKKLKTLEELCDTEYFTQTLAQLSHIEHMFRGDLCYLLTSQIDRALLKQQHITNFLFEDFVEVDDRMVEKQESIPSKPSQDRPPSSSLEECPIPKVLISVGSYKSSVESVLIKMEQELGDEEYKEVEVTELSSFDPQENLDYLDMDMKGSISSGESIEVLGTEKSTSVLSKSDSQASLTVPLSPQVVRSKAVSHRTISEDSIEVLSTCPSEALIPDDFKASYPSAINEEESYPDGNEGAIRFQASISPPELGETEEGSIENTPSQIDSSCCIGKESDGQLVLPSTPAHTHSDEDGVVSSPPQRHRQKDQGFRVDFSVENANPSSRDNSCEGFPAYELDPSHLLASRDISKTSLDNYSDTTSYVSSVASTSSDRIPSAYPAGLSSDRHKKRAGQNALKFIRQYPFAHPAIYSLLSGRTLVVLGEDEAIVRKLVTALAIFVPSYGCYAKPVKHWASSPLHIMDFQKWKLIGLQRVASPAGAGTLHALSRYSRYTSILDLDNKTLRCPLYRGTLVPRLADHRTQIKRGSTYYLHVQSMLTQLCSKAFLYTFCHHLHLPTHDKETEELVASRQMSFLKLTLGLVNEDVRVVQYLAELLKLHYMQESPGTSHPMLRFDYVPSFLYKI
not listed: [4]
binds: all other assays above

B6: C9orf72 (protein, UniProt Q96LT7 1-481)
chain: MSTLCPPPSPAVAKTEIALSGKSPLLAATFAYWDNILGPRVRHIWAPKTEQVLLSDGEITFLANHTLNGEILRNAESGAIDVKFFVLSEKGVIIVSLIFDGNWNGDRSTYGLSIILPQTELSFYLPLHRVCVDRLTHIIRKGRIWMHKERQENVQKIILEGTERMEDQGQSIIPMLTGEVIPVMELLSSMKSHSVPEEIDIADTVLNDDDIGDSCHEGFLLNAISSHLQTCGCSVVVGSSAEKVNKIVRTLCLFLTPAERKCSRLCEAESSFKYESGLFVQGLLKDSTGSFVLPFRQVMYAPYPTTHIDVDVNTVKQMPPCHEHIYNQRRYMRSELTAFWRATSEEDMAQDTIIYTDESFTPDLNIFQDVLHRDTLVKAFLDQVFQLKPGLSLRSTFLAQFLLVLHRKALTLIKYIEDDTQKGKKPFKSLRNLKIDLDLTAEGDLNIIMALAEKIKPGLHSFIFGRPFYTSVQERDVLMTF
not listed: [4]
binds: all other assays above

B7: WDR41 (protein, UniProt Q9HAD4 1-459)
chain: MLRWLIGGGREPQGLAEKSPLQTIGEEQTQNPYTELLVLKAHHDIVRFLVQLDDYRFASAGDDGIVVVWNAQTGEKLLELNGHTQKITAIITFPSLESCEEKNQLILTASADRTVIVWDGDTTRQVQRISCFQSTVKCLTVLQRLDVWLSGGNDLCVWNRKLDLLCKTSHLSDTGISALVEIPKNCVVAAVGKELIIFRLVAPTEGSLEWDILEVKRLLDHQDNILSLINVNDLSFVTGSHVGELIIWDALDWTMQAYERNFWDPSPQLDTQQEIKLCQKSNDISIHHFTCDEENVFAAVGRGLYVYSLQMKRVIACQKTAHDSNVLHVARLPNRQLISCSEDGSVRIWELREKQQLAAEPVPTGFFNMWGFGRVSKQASQPVKKQQENATSCSLELIGDLIGHSSSVEMFLYFEDHGLVTCSADHLIILWKNGERESGLRSLRLFQKLEENGDLYLAV
not listed: [4]
binds: all other assays above

From doi:10.1101/2020.04.01.020479
